Results are given in words; binding and its absence hold for the method and conditions named.
How the values were obtained:
[1] = target: Acinetobacter baumannii SpoT (Acinetobacter baumannii); test: SEC; analytical SEC, 100 µl of protein at 1 mg/ml on Superdex 200 Increase 10300 in SEC buffer (50 mM HEPES pH 7.5, 500 mM NaCl, 500 mM KCl, 2 mM MgCl2, 1 mM TCEP, 0.002% mellitic acid, 1 mM MnCl2); both purified
[2] = target: Acinetobacter baumannii SpoT (Acinetobacter baumannii); test: SEC-SAXS; protein at 8 mg/ml, Shodex KW404-4F column in line with SAXS, 500 mM NaCl, 2 mM TCEP, 30 mM Tris-HCl pH 7.0, 10 °C; both purified

With “Acinetobacter baumannii SpoT (from UniProt A0ABX6CKF0 1-701) (enzyme)” the binding [1] was “no binding (tested: 1 mg ml^−1)” and the binding [2] was “no binding (tested: 8 mg ml^−1)”.

Source: paper PMC9974481, “Structure of SpoT reveals evolutionary tuning of catalysis via conformational constraint” (Nature Chemical Biology, 2022)
